# Literature values as cited in US20130072534A1 (LABORATORIOS DEL DR. ESTEVE, S.A., priority 2009, published 2013).
# Conditions: cited from earlier work
smiles,measurement,value
"Cc1ccc(-c2cc(C(F)(F)F)nn2-c2ccc(S(N)(=O)=O)cc2)cc1 [celecoxib, 4-[5-(4-methylphenyl)-3-(trifluoromethyl)pyrazol-1-yl]benzenesulfonamide]",solubility in water (in words),only slightly soluble in water
